Data reported in the supplement of paper PMC10849652.
Some of the results follow.

Amino acid sequences for entries named in this document (tags omitted). A change or cut given only in a name is not applied to a line headed by its entry.
UniProt Q9UJU6: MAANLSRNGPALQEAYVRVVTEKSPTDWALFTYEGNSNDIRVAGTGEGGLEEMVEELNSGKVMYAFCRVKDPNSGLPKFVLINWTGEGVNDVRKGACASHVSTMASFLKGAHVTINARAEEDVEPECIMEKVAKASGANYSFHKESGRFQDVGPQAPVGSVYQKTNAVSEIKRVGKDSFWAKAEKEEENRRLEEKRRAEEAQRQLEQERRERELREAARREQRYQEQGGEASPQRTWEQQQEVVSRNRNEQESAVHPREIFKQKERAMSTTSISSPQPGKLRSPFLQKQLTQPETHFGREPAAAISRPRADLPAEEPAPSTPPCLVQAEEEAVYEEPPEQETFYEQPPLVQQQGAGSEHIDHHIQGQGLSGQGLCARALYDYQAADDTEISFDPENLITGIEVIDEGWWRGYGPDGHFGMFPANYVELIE
UniProt Q9NWV4: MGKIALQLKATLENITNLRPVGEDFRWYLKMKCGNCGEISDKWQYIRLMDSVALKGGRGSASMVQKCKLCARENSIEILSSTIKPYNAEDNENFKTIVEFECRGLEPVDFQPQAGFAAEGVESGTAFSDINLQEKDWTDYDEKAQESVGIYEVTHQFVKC
UniProt P35221: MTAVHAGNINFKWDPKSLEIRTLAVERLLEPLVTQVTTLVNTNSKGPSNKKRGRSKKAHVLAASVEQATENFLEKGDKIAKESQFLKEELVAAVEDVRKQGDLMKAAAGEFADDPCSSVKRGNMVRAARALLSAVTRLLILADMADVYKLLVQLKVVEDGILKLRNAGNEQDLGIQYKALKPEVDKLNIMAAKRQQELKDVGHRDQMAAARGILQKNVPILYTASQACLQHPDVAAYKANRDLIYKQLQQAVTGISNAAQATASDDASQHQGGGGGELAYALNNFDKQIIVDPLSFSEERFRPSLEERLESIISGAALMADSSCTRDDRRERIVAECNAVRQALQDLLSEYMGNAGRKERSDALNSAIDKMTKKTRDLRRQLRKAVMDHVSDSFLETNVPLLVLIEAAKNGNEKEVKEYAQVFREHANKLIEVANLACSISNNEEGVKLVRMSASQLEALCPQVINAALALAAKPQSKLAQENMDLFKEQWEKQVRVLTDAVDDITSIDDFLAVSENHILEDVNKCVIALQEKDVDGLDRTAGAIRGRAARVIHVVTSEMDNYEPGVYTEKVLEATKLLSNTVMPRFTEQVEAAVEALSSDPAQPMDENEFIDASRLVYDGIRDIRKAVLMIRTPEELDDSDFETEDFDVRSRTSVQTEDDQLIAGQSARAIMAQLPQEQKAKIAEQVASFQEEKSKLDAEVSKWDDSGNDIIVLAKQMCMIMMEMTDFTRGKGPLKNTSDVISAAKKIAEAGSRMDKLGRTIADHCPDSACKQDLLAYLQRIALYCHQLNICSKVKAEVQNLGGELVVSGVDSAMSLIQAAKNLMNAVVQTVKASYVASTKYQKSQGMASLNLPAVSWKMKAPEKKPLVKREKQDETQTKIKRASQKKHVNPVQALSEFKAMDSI
UniProt Q9UBR2: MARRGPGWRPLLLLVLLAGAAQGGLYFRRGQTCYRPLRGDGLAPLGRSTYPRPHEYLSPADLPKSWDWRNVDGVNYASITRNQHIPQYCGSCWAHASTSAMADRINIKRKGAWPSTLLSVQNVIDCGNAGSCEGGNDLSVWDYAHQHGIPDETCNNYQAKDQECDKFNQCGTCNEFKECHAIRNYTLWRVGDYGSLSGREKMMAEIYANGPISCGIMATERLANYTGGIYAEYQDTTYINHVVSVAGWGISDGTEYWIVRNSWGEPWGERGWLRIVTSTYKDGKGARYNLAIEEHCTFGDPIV
UniProt P32929, whole entry, looked up: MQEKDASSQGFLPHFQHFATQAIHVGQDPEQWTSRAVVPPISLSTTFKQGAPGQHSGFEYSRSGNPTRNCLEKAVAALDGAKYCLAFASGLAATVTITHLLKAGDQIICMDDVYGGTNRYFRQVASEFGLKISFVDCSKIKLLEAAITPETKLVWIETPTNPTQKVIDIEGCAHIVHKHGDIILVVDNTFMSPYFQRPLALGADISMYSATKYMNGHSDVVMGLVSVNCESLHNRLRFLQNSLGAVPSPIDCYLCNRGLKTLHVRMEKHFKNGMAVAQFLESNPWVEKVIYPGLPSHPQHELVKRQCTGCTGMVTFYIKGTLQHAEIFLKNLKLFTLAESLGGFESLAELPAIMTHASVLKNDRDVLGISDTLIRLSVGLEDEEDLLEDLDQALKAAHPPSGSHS
UniProt Q96C86: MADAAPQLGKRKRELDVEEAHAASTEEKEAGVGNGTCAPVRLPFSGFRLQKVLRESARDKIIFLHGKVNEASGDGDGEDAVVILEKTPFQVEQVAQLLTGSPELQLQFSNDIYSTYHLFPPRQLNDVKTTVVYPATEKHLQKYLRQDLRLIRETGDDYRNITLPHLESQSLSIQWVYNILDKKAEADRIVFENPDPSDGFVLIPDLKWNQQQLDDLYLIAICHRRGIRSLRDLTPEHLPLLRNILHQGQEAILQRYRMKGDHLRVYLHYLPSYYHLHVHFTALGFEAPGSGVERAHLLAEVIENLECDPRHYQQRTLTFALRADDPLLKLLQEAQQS
UniProt Q9UJW0, whole entry, looked up: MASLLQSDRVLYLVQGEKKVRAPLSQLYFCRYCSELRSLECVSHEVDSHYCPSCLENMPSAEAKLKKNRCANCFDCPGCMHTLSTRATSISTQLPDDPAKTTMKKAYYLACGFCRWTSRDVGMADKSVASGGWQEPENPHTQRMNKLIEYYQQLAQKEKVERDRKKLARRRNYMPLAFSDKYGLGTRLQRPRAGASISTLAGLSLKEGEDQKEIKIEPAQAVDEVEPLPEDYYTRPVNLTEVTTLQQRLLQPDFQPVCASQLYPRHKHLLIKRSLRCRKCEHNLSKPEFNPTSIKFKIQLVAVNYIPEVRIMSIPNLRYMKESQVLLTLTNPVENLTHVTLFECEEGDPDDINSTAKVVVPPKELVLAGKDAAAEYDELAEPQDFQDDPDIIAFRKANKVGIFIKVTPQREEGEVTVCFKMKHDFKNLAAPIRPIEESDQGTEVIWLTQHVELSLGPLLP
UniProt Q13617, whole entry, looked up: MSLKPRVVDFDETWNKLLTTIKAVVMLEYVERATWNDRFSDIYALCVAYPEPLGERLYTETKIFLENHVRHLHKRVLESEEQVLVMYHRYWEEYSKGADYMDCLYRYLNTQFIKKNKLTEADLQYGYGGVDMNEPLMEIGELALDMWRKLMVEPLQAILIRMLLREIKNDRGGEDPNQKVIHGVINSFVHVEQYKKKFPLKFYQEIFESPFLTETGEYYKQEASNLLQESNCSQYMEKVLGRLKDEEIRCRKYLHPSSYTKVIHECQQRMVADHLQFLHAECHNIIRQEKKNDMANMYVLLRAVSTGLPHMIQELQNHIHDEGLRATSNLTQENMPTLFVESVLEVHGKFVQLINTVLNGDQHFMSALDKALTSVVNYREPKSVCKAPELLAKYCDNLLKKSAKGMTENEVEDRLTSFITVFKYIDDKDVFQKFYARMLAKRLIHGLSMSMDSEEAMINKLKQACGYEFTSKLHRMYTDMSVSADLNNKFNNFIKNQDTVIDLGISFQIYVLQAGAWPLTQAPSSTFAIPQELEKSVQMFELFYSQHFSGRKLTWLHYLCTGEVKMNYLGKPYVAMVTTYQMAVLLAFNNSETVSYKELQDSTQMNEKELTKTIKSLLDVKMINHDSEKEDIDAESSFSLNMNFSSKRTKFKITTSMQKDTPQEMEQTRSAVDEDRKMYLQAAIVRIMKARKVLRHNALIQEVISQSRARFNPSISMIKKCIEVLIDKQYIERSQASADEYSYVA
UniProt P08574: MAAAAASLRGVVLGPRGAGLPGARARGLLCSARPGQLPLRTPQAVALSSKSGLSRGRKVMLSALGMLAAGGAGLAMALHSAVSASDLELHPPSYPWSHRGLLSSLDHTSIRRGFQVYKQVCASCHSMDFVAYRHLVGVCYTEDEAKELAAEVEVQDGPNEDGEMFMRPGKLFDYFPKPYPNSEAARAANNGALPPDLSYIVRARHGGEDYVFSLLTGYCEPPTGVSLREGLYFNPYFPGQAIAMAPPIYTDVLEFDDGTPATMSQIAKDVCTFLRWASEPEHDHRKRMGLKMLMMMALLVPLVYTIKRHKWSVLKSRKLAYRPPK
UniProt Q9Y4B6: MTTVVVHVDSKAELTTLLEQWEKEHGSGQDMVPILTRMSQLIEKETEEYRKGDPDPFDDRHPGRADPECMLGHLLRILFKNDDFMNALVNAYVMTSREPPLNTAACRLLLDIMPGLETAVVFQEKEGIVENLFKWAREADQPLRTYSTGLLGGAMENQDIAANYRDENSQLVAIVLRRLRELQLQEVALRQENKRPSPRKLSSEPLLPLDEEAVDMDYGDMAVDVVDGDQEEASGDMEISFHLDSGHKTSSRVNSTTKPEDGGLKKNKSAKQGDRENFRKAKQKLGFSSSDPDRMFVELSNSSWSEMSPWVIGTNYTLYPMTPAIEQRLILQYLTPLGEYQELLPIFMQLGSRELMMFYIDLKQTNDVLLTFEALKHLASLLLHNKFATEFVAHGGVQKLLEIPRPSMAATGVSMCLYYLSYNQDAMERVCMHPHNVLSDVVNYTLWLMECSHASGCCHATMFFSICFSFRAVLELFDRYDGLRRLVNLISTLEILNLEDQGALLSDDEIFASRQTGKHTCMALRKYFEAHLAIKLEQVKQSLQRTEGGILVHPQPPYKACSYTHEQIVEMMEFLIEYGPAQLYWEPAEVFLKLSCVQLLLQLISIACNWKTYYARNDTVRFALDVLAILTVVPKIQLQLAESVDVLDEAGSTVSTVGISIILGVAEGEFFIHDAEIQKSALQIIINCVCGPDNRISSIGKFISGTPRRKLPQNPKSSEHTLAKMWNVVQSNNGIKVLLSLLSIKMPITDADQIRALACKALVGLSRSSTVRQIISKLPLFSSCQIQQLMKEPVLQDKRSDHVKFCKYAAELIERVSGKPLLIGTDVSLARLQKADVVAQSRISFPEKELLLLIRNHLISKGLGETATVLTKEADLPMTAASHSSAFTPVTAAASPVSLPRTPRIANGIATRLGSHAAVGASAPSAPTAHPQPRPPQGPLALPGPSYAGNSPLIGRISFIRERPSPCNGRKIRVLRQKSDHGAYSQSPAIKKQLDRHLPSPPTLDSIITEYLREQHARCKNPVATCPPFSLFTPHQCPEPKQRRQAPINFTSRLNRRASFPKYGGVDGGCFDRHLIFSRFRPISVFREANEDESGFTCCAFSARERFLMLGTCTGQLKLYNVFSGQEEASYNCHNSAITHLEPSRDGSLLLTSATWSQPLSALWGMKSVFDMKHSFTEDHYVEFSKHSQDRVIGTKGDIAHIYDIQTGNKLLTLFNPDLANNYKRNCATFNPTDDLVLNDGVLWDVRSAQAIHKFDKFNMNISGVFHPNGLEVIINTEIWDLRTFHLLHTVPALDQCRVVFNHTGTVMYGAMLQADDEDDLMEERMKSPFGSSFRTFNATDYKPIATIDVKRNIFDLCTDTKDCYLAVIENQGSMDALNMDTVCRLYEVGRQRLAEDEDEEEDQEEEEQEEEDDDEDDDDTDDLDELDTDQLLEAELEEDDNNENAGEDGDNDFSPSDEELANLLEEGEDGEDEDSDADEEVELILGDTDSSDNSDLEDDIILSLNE
UniProt P00387: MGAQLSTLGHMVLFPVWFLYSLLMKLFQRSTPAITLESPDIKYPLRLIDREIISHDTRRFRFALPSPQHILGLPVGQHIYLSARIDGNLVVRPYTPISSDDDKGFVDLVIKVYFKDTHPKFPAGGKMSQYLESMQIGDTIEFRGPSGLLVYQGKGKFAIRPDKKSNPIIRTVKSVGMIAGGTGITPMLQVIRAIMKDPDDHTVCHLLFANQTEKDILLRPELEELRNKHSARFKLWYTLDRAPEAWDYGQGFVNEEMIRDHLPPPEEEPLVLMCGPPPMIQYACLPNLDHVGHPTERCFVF
UniProt Q9P0U4, whole entry, looked up: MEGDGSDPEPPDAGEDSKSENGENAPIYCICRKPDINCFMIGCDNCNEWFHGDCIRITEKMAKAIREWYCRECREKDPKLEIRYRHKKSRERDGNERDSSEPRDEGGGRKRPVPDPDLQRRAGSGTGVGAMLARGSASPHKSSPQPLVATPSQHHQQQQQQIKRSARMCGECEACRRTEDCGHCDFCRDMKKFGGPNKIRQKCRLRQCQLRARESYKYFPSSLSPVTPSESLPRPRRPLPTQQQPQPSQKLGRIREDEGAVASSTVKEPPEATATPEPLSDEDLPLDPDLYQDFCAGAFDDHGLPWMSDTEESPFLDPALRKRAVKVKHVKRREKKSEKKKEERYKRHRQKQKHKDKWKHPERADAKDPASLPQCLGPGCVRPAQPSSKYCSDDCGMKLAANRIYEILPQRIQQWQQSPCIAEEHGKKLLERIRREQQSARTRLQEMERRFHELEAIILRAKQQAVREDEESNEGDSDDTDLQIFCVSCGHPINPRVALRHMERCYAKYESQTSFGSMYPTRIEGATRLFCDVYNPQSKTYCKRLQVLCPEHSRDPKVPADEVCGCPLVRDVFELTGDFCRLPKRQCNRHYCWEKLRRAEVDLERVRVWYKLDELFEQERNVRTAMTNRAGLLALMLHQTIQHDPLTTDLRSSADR

Assays:
Assay in all cases: log2 fold change, soluble protein after heating vs DMSO (PISA); higher = thermal stabilisation; K562 cells, 10 uM, 30 min; active = over 0.2 and 3.5 SD of the protein, either way, in both replicates (recomputed)
[1] = compound: CS(=O)(=O)c1ccc(-c2cnc(N)c(C(=O)Nc3ccccc3)n2)cc1
Outline: (§1)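 K562 cells at 2×10^6 cells/mL were given 10 μM compound for 30 min. Aliquots then went through 3 min of heating across 48°C-58°C, were pooled, and were extracted in PBS with 0.5% NP-40 at 4°C, and the supernatant after 21,000xg for 90 min was quantified by TMTpro 16plex LC-MS/MS with channel sums equalised. Thermal stability relative to control samples, from duplicates, is given as log2 fold change.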

[2] = compound: C[C@@H](Oc1cc(-c2cnn(C3CCNCC3)c2)cnc1N)c1c(Cl)ccc(F)c1Cl [crizotinib]
Outline: as §1

[3] = compound: C[C@@H]1COCCN1C2=NC(=NC(=C2)C3(CC3)S(=O)(=O)C)C4=C5C=CNC5=CC=C4
Outline: as §1

[4] = compound: C[C@H](C1=CC=C(C=C1)C(=O)NC2=C3C=CNC3=NC=C2)N
Outline: as §1

[5] = compound: C[C@H](Nc1ncnc2nc[nH]c12)c1cc2cccc(Cl)c2c(=O)n1-c1ccccc1 [duvelisib]
Outline: as §1

[6] = compound: Cc1cc(Nc2cc(CN3CCOCC3)c3nc(C)c(Cc4ccc(Cl)cc4F)n3n2)n[nH]1 [gandotinib]
Outline: as §1

[7] = compound: Cc1cc(Nc2cc(N3CCN(C)CC3)nc(Sc3ccc(NC(=O)C4CC4)cc3)n2)n[nH]1 [tozasertib]
Outline: as §1

[8] = compound: Cc1cc(SCc2sc(-c3ccc(C(F)(F)F)cc3)nc2C)ccc1OCC(=O)O
Outline: as §1

[9] = compound: Cc1ccc(-n2nc(C(C)(C)C)cc2NC(=O)Nc2ccc(OCCN3CCOCC3)c3ccccc23)cc1 [doramapimod]
Outline: as §1

[10] = compound: Cc1ccc(C(=O)N(CCCN)[C@@H](c2nc3cc(Cl)ccc3c(=O)n2Cc2ccccc2)C(C)C)cc1 [ispinesib]
Outline: as §1

Measured: log2 fold change

CTCF (UniProt P49711)
inactive: [1] -0.065 | [2] 0.101 | [3] -0.377 | [4] 0.279 | [5] -0.224 | [6] 0.23 | [7] 0.009 | [8] 0.041 | [9] 0.265 | [10] -0.084

DBNL isoform 3 (UniProt Q9UJU6)
inactive: [1] 0.041 | [2] -0.116 | [3] 0.073 | [4] -0.016 | [6] -0.094 | [8] -0.015 | [9] 0.054 | [10] -0.048

CZIB (UniProt Q9NWV4)
inactive: [1] 0.025 | [2] 0.046 | [3] 0.046 | [4] -0.117 | [5] 0.021 | [6] -0.044 | [7] 0.025 | [8] -0.007 | [9] -0.032 | [10] 0.089

CUL1 (UniProt Q13616)
inactive: [1] 0.003 | [2] 0.074 | [3] 0.018 | [4] -0.087 | [5] 0.011 | [6] 0.034 | [7] -0.002 | [8] -0.02 | [9] -0.051 | [10] 0.098

CTNNA1 isoform 2 (UniProt P35221)
inactive: [1] -0.027 | [2] -0.045 | [3] -0.036 | [4] -0.056 | [5] 0.013 | [6] -0.012 | [7] -0.06 | [8] -0.013 | [9] 0.019 | [10] -0.008

CTSZ (UniProt Q9UBR2)
inactive: [1] -0.001 | [2] -0.007 | [3] 0.021 | [4] -0.033 | [6] 0.03 | [8] -0.037 | [9] 0.05
active: [10] -0.481

CUL3 (UniProt Q13618)
inactive: [1] 0.016 | [2] 0.008 | [3] 0.062 | [4] -0.07 | [5] 0.013 | [6] -0.03 | [7] -0.021 | [8] 0.002 | [9] -0.014 | [10] 0.06

DAP3 (UniProt P51398)
inactive: [1] -0.015 | [2] 0.104 | [3] 0.029 | [4] 0.197 | [5] -0.008 | [6] 0.011 | [7] -0.013 | [8] 0.046 | [9] 0.04 | [10] -0.246

CTH (UniProt P32929)
inactive: [1] -0.012 | [2] 0.029 | [3] 0.029 | [4] -0.103 | [5] 0 | [6] -0.093 | [7] 0.005 | [8] -0.017 | [9] -0.025 | [10] 0.082

DCPS (UniProt Q96C86)
inactive: [1] 0.019 | [2] 0.058 | [3] -0.029 | [4] -0.014 | [5] 0 | [6] 0.012 | [7] -0.014 | [8] -0.017 | [9] -0.009 | [10] -0.002

DCTN4 (UniProt Q9UJW0)
inactive: [1] -0.107 | [2] 0.084 | [3] -0.005 | [4] 0.026 | [5] 0.036 | [6] -0.034 | [7] -0.021 | [8] -0.007 | [9] 0.011 | [10] 0.027

CUL2 isoform 2 (UniProt Q13617)
inactive: [1] -0.006 | [2] -0.002 | [3] 0.057 | [4] -0.056 | [5] 0.015 | [6] -0.049 | [7] 0.005 | [8] 0.026 | [9] -0.03 | [10] 0.064

CYC1 (UniProt P08574)
inactive: [1] -0.008 | [2] 0.054 | [3] 0.048 | [4] -0.058 | [5] -0.034 | [6] -0.049 | [7] 0.002 | [8] 0.021 | [9] -0.114 | [10] 0.015

DCAF1 (UniProt Q9Y4B6)
inactive: [1] 0.009 | [2] -0.032 | [3] 0.041 | [4] -0.033 | [5] 0.03 | [6] 0.011 | [7] 0.009 | [8] 0.032 | [9] -0.019 | [10] -0.014

CTPS1 (UniProt P17812)
inactive: [1] -0.01 | [2] 0.027 | [3] 0.045 | [4] -0.075 | [5] 0.046 | [6] 0.028 | [7] -0.034 | [8] 0.006 | [9] -0.014 | [10] -0.017

CTSC (UniProt P53634)
inactive: [1] 0.042 | [2] -0.037 | [3] -0.015 | [4] -0.062 | [6] 0 | [8] -0.047 | [9] 0.013 | [10] -0.057

8 successive entries from above, for reference:
DAP3 (UniProt P51398)
inactive: [1] -0.015 | [2] 0.104 | [3] 0.029 | [4] 0.197 | [5] -0.008 | [6] 0.011 | [7] -0.013 | [8] 0.046 | [9] 0.04 | [10] -0.246

CTH (UniProt P32929)
inactive: [1] -0.012 | [2] 0.029 | [3] 0.029 | [4] -0.103 | [5] 0 | [6] -0.093 | [7] 0.005 | [8] -0.017 | [9] -0.025 | [10] 0.082

DCPS (UniProt Q96C86)
inactive: [1] 0.019 | [2] 0.058 | [3] -0.029 | [4] -0.014 | [5] 0 | [6] 0.012 | [7] -0.014 | [8] -0.017 | [9] -0.009 | [10] -0.002

DCTN4 (UniProt Q9UJW0)
inactive: [1] -0.107 | [2] 0.084 | [3] -0.005 | [4] 0.026 | [5] 0.036 | [6] -0.034 | [7] -0.021 | [8] -0.007 | [9] 0.011 | [10] 0.027

CUL2 isoform 2 (UniProt Q13617)
inactive: [1] -0.006 | [2] -0.002 | [3] 0.057 | [4] -0.056 | [5] 0.015 | [6] -0.049 | [7] 0.005 | [8] 0.026 | [9] -0.03 | [10] 0.064

CYC1 (UniProt P08574)
inactive: [1] -0.008 | [2] 0.054 | [3] 0.048 | [4] -0.058 | [5] -0.034 | [6] -0.049 | [7] 0.002 | [8] 0.021 | [9] -0.114 | [10] 0.015

DCAF1 (UniProt Q9Y4B6)
inactive: [1] 0.009 | [2] -0.032 | [3] 0.041 | [4] -0.033 | [5] 0.03 | [6] 0.011 | [7] 0.009 | [8] 0.032 | [9] -0.019 | [10] -0.014

CTPS1 (UniProt P17812)
inactive: [1] -0.01 | [2] 0.027 | [3] 0.045 | [4] -0.075 | [5] 0.046 | [6] 0.028 | [7] -0.034 | [8] 0.006 | [9] -0.014 | [10] -0.017

Carrying on:

CYB5R3 isoform 3 (UniProt P00387)
inactive: [1] 0.032 | [2] 0.031 | [3] 0.017 | [4] -0.07 | [5] 0.055 | [6] -0.012 | [7] -0.023 | [8] -0.004 | [9] -0.059 | [10] 0.079

CTSB (UniProt P07858)
inactive: [1] 0.048 | [3] 0.057 | [4] -0.042 | [6] 0.006 | [8] 0.015 | [9] -0.014
active: [2] -0.508 | [10] -0.403

CTBS (UniProt Q01459)
inactive: [1] -0.05 | [2] -0.166 | [3] -0.078 | [4] 0.04 | [6] -0.078 | [8] -0.018 | [9] 0.009 | [10] -0.092

CTR9 (UniProt Q6PD62)
inactive: [1] -0.193 | [2] 0.153 | [3] 0.053 | [5] 0.047 | [6] -0.012 | [8] 0.134 | [9] 0.082 | [10] -0.131

CUEDC2 (UniProt Q9H467)
inactive: [1] 0.028 | [2] -0.029 | [3] 0.026 | [4] -0.113 | [6] -0.017 | [8] 0.012 | [9] -0.087 | [10] 0.024

CTSV (UniProt O60911)
inactive: [1] 0.073 | [3] 0.099 | [4] -0.01 | [6] -0.334 | [8] -0.04 | [9] -0.005
active: [2] -1.59 | [10] -0.453

DAG1 (UniProt Q14118)
inactive: [1] 0.037 | [2] 0.119 | [3] 0.132 | [4] 0.032 | [6] -0.006 | [8] -0.032 | [9] -0.001 | [10] -0.001

CYP46A1 (UniProt Q9Y6A2)
inactive: [1] -0.055 | [2] 0.078 | [4] 0.2 | [5] 0.039 | [6] 0.006 | [7] -0.081 | [8] -0.032 | [9] -0.068 | [10] -0.325

CYP51A1 (UniProt Q16850)
inactive: [1] 0.028 | [2] 0.12 | [3] -0.162 | [4] 0.147 | [6] -0.111 | [8] 0 | [9] 0.156 | [10] 0.117

CXXC1 isoform 2 (UniProt Q9P0U4)
inactive: [1] -0.001 | [2] 0.091 | [4] 0.179 | [5] 0.06 | [6] 0.006 | [7] -0.218 | [8] -0.062 | [9] -0.068

DCAF6 isoform 3 (UniProt Q58WW2)
inactive: [1] -0.008 | [2] 0.132 | [3] 0.026 | [4] -0.054 | [6] -0.024 | [8] -0.058 | [9] 0.056 | [10] 0.027
